Experimental data taken from patent US20090004658A1.
Results are given in words; binding and its absence hold for the method and conditions named. In cells and extracts the contact can be indirect. Some binding calls cover weakened binding; strength is not graded here.

Sequences of proteins named here, by UniProt entry; tags and fusion partners are left off.
UniProt P05556: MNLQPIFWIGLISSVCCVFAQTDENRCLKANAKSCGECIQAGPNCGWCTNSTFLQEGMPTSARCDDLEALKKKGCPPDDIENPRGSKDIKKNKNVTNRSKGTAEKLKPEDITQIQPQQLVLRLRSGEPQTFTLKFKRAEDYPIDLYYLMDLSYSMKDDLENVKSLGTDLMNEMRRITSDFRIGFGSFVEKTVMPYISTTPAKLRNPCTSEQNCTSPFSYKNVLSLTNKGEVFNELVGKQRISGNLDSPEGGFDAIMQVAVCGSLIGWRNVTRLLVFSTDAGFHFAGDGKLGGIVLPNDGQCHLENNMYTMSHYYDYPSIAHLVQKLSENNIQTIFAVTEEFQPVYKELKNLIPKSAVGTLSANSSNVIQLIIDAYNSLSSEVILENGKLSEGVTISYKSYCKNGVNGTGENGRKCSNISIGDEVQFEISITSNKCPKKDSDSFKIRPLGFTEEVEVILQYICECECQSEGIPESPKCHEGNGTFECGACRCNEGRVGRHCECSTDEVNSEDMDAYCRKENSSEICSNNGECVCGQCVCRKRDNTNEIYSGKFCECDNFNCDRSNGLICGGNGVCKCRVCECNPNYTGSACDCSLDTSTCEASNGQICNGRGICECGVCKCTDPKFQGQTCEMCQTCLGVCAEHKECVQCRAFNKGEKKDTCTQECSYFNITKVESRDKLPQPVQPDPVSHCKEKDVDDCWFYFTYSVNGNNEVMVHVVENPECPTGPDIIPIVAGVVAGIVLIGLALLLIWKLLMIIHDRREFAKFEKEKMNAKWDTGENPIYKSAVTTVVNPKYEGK

Assays:
[1] = target: integrin β1 (UniProt P05556); assay: co-immunoprecipitation, blot with anti-ITGB1 antibodies
[2] = target: integrin β1 (UniProt P05556); assay: co-immunoprecipitation with anti-integrin α7 antibodies from PITT1 lysates, blot with anti-integrin β1
[3] = target: integrin β1 (UniProt P05556); assay: co-immunoprecipitation with anti-ITGA7 antibody and protein G-Sepharose, blot with anti-integrin β1

Measured: binding

B1: integrin α7 expressed from pcDNA4-ITGA7 in tetracycline-induced PITT1 cells (receptor)
chain: FNLDVMGALRKEGEPGSLFGFSVALHRQLQPRPQSWLLVGAPQALALPGQQANRTGGLFACPLSLEETDCYRVDIDQGADMQKESKENQWLGVSVRSQGPGGKIVTCAHRYEARQRVDQILETRDMIGRCFVLSQDLAIRDELDGGEWKFCEGRPQGHEQFGFCQQGTAAAFSPDSHYLLFGAPGTYNWKGLLFVTNIDSSDPDQLVYKTLDPADRLPGPAGDLALNSYLGFSIDSGKGLVRAEELSFVAGAPRANHKGAVVILRKDSASRLVPEVMLSGERLTSGFGYSLAVADLNSDGWPDLIVGAPYFFERQEELGGAVYVYLNQGGHWAGISPLRLCGSPDSMFGISLAVLGDLNQDGFPDIAVGAPFDGDGKVFIYHGSSLGVVAKPSQVLEGEAVGIKSFGYSLSGSLDMDGNQYPDLLVGSLADTAVLFRARPILHVSHEVSIAPRSIDLEQPNCAGGHSVCVDLRVCFSYIAVPSSYSPTVALDYVLDADTDRRLRGQVPRVTFLSRNLEEPKHQASGTVWLKHQHDRVCGDAMFQLQENVKDKLRAIVVTLSYSLQTPRLRRQAPGQGLPPVAPILNAHQPSTQRAEIHFLKQGCGEDKICQSNLQLVHARFCTRVSDTEFQPLPMDVDGTTALFALSGQPVIGLELMVTNLPSDPAQPQADGDDAHEAQLLVMLPDSLHYSGVRALDPAEKPLCLSNENASHVECELGNPMKRGAQVTFYLILSTSGISIETTELEVELLLATISEQELHPVSARARVFIELPLSIAGMAIPQQLFFSGVVRGERAMQSERDVGSKVKYEVTVSNQGQSLRTLGSAFLNIMWPHEIANGKWLLYPMQVELEGGQGPGQKGLCSPRPNILHLDVDSRDRRRRELEPPEQQEPGERQEPSMSWWPVSSAEKKKNITLDCARGTANCVVFSCPLYSFDRAAVLHVWGRLWNSTFLEEYSAVKSLEVIVRANITVKSSIKNLMLRDASTVIPVMVYLDPMAVVAEGVPWWVILLAVLAGLLVLALLVLLLWKMGFFKRAKHPEATVPQYHAVKIPREDRQQFKEEKTGTILRNNWGSPRREGPDAHPILAADGHPELGPDGHPGPGTA
binds: all assays above
